# Measured values published in US20190062453A1.
# No constants are given. Whether binding was seen depends on the method and setting. Binding calls can cover weak binding; strength is not graded here.
# Target: human DR5 (recombinant, fusion format not stated for the assay) (human)
# Assay: SPR, antibody captured by anti-human Fc, analyte at 500 nM
row,Binder,binding
1,"DR5TAA-0067 (antibody, human IgG1, kappa, L234A L235A, V domains shown) VH: EVQLVETGGGLIQPGGSLRLSCAASGFTVSRYAMIWVRQAPGKGLEYIGFITSDGSTYYADSAKGRFTISRDNSKNTLYLQMNSLRAEDTAVYYCARYTYSDGTDLWGRGTLVTVSS VL: DIQMTQSPSTLSASVGDRVTITCRASQSISTYLSWYQQKPGKAPKRLIYKASSLASGVPSRFSGSGSGTEFTLTISSLQPDDAATYYCQPNSGIATYGAAFGGGTKVEIKR",binds
2,"DR5TAA-0074 (antibody, human IgG1, kappa, L234A L235A, V domains shown) VH: EVQLVETGGGLIQPGGSLRLSCAASGFTVSRYAMIWVRQAPGKGLEYIGFITSDGSTYYADSAKGRFTISRDNSKNTLYLQMNSLRAEDTAVYYCARYTYSDGTDLWGRGTLVTVSS VL: DIQMTQSPSSLSASVGDRVTITCRASQSISTYLSWYQQKPGQPPKRLIYKASTLASGVPSRFSGSGSGTDFTLTISSLQPEDFATYYCQPNSGIATYGAAFGGGTKVEIKR",binds
3,"DR5TAA-0073 (antibody, human IgG1, kappa, L234A L235A, V domains shown) VH: QVQLVESGGGLVQPGGSLRLSCSASGFSISRYAMIWVRQAPGKGLEYVGFITSDSSAYYASWAKGRFTISRDNSKNTLYLQMNSLRAEDTAVYYCARYTYSDGTDLWGQGTLVTVSS VL: DIQMTQSPSSLSASVGDRVTITCRASQSISTYLSWYQQKPGKAPKRLIYKASTLASGVPSRFSGSGSGTDFTLTISSLQPEDAATYYCQPNSGIATYGAAFGGGTKVEIKR",binds
4,"DR5TAA-0068 (antibody, human IgG1, kappa, L234A L235A, V domains shown) VH: QVQLVESGGGLVQPGGSLRLSCSASGFSISRYAMIWVRQAPGKGLEYVGFITSDSSAYYASWAKGRFTISRDNSKNTLYLQMNSLRAEDTAVYYCARYTYSDGTDLWGQGTLVTVSS VL: DIQMTQSPSSLSASVGDRVTITCRASQSISTYLSWYQQKPGQPPKRLIYKASTLASGVPSRFSGSGSGTDFTLTISSLQPEDFATYYCQPNSGIATYGAAFGGGTKVEIKR",binds
5,"DR5TAA-0066 (antibody, human IgG1, kappa, L234A L235A, V domains shown) VH: EVQLVETGGGLIQPGGSLRLSCAASGFTVSRYAMIWVRQAPGKGLEYIGFITSDGSTYYADSAKGRFTISRDNSKNTLYLQMNSLRAEDTAVYYCARYTYSDGTDLWGRGTLVTVSS VL: DIQMTQSPSSLSASVGDRVTITCRASQSISTYLSWYQQKPGKAPKRLIYKASTLASGVPSRFSGSGSGTDFTLTISSLQPEDAATYYCQPNSGIATYGAAFGGGTKVEIKR",binds
6,"DR5TAA-0075 (antibody, human IgG1, kappa, L234A L235A, V domains shown) VH: EVQLVETGGGLIQPGGSLRLSCAASGFTVSRYAMIWVRQAPGKGLEYIGFITSDGSTYYADSAKGRFTISRDNSKNTLYLQMNSLRAEDTAVYYCARYTYSDGTDLWGRGTLVTVSS VL: DIQMTQSPSSLSASVGDRVTITCQASQSISTYLSWYQQKPGQPPKRLIYKASTLASGVPSRFSGSGSGTDFTLTISSLQPEDFATYYCQPNSGIATYGAAFGGGTKVEIKR",binds

# Target: human DR5 (recombinant, fusion format not stated for the assay) (human)
# Assay: SPR (Biacore), antibody captured on the chip, human DR5 at 200 nM in solution; RU binding divided by RU capture relative to the unstressed sample
row,Binder,binding
1,"DR5TAA-0005 (antibody, V domains shown) VH: QSLEESGGRLVTPGTPLTLTCTASGFSLSSAYMSWVRQAPGKGLEWIGYIYSGSGSTWYASWVKGRFTISKTSTTVDLKITSPTTEDTATYFCARGYSTMGDLWGPGTLVTVSS VL: QVLTQTPSPVSAAVGGTVTINCQASQSVYNNRLAWYQQKPGQPPKLLIYLASTLASGVPSRFKGSGSGTQFTLTISDLQCDDAATYYCAGGYSGNINAFGGGTEVVVKG",binds
2,"DR5TAA-0006 (antibody, V domains shown) VH: QSLEESGGRLVTPGTPLTLTCTASGFSLSSNHMSWVRQAPGKGLEWIGYIYAGSGSAYYASWAKGRFTISRTSTTVDLKMTSLTTEDTATYFCAGDAGSSYWEFNLWGPGTLVTVSS VL: LVMTQTPSSTSEPVGGTVTIKCQASQSIGSSLSWYQQKPGQPPKLLIYHASTLASGVPSRFSGSRSGIQTTLTISGVQCDDAATYYCLGVADARRDDGFAFGGGTEVVVKG",binds
3,"DR5TAA-0011 (antibody, V domains shown) VH: QSVEESGGRLVTPGTPLTLTCTVSGFSISRYAMIWVRQAPGEGLEYIGFITSDSSAYYASWAKGRFTISKTSTTVDLKMTSPTTEDTATYFCARYTYSDGTDLWGPGTLVTVSS VL: DIVMTQTPASVSEPVGGTVTIKCQASQSISTYLSWYQQKPGQPPKRLIYKASTLASGVPSRFKGSGSGTDFTLTIRDLECADAATYYCQPNSGIATYGAAFGGGTEVVVKG",binds
4,"DR5TAA-0013 (antibody, V domains shown) VH: QSLEESGGRLVTPGTPLTLTCTASGFTISSYHMSWVRQAPGKGLEWIGYIYAGSASTWYASWVKGRFTISKTSTTVDLKMTSLTTEDTATYFCARDAGSSYWEFNLWGPGTLVTVSS VL: LVMTQTPSSTSEPVGGTVTIKCQASQSIGSSLSWYQQTPGQPPKLLIYTASSLASSVPKRFSGSRSGTQFTLTISGVQCADAATYYCLGIDDVRRDDGFAFGGGTEVVVKG",binds
5,"DR5TAA-0016 (antibody, V domains shown) VH: QSLEESGGRLVKPDETLTLTCTVSGFSLNNYAMSWVRQAPGKGLEWIGMINKYGTKYYATWTKGRATISKTSTTLDLEITSPTTEDTATYFCARVRYAGDDYAEWLDVWGQGILVTVSS VL: DIVMTQTASPVSAAVGGTVTINCQASQSISSSYVSWYQQKPGQPPKLLIYKASTLASGVPSRFSGSGSGTQLSLTIRGVQCDDAATYYCLYGYSDVSSSEYVFGGGTEVVVRG",binds
6,"DR5TAA-0019 (antibody, V domains shown) VH: QSVEESGGRLVTPGTPLTLTCTVSGFSLSNYAMSWVRQAPGKGLEWIGIISSSGTTYYASWAKGRFTISKTSTTVDLKVTSPTTEDTATYFCARETYYGYSYAAGLWGPGTLVTVSS VL: ALVMTQTPSSVSAAVGGTVTINCQASQNIYSNLAWFQQKPGQPPKLLIYETSKLASGVPSRFSGSGSGTEFTLTISDLECDDAATYYCQSSWHSISTDCAFGGGTEVVVKG",binds
7,"DR5TAA-0010 (antibody, V domains shown) VH: QSLEESGGRLVKPDETLTLTCTVSGFSLSSNAISWVRQAPGMGLEWIGIIGSSGYTYYASWAKGRFTVSKTSTTVDLEIASPTTEDTATYFCARGYSGASDYSFNLWGPGTLVTVSS VL: AYDMTQTPDSVEVAVGGTVTIKCQASQTIGDALAWYQQKPGQRPNLLIYRTSTLASGVPSRFSGSGSGTHFTLTISGVECADAATYYCQQGATYNNVLNTFGGGTEVVVKG",binds
